Assay results published in patent US20090208508A1, “NOVEL USE OF UBIQUITIN C-TERMINAL HYDROLASE-L1” (SK CORPORATION, priority 2005, published 2009).
These are yes or no findings as the source states them, for the method shown. For part of these data: Binding seen in cells or lysates may run through a third protein. Some entries that bind do so weakly or less than the wild type.

Amino acid sequences for entries named in this document (tags omitted). A change or cut given only in a name is not applied to a line headed by its entry. Residues count along the entry.
UniProt P27361, residues 2-379: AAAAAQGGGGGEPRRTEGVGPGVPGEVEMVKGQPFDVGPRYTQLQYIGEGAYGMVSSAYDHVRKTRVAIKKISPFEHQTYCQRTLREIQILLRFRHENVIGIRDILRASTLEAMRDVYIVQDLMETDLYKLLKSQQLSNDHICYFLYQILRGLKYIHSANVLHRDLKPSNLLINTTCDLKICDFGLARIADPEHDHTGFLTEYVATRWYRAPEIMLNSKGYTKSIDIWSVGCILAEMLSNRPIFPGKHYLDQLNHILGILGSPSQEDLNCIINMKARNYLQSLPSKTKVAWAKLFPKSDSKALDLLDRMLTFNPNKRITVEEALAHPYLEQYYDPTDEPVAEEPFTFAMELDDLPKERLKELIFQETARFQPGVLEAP
UniProt P09936: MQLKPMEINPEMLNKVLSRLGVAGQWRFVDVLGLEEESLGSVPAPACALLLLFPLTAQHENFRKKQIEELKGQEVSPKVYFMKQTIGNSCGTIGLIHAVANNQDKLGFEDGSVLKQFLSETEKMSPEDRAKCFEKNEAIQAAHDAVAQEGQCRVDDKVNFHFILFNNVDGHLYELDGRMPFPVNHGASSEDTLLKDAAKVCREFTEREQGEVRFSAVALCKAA

What was measured:
[1] = target: 44 kDa protein kinase, mitogen-activated protein kinase (UniProt P27361); assay: co-immunoprecipitation and MALDI-TOF MS, HEK293T cells
[2] = target: 44 kDa protein kinase, mitogen-activated protein kinase (UniProt P27361); assay: Western blot of the UCH-L1 immunoprecipitate with anti-ERK antibody (FIG. 9)
[3] = target: 44 kDa protein kinase, mitogen-activated protein kinase (UniProt P27361); assay: co-immunoprecipitation with Flag-UCH-L1 from transfected HEK293T cells, 2D-PAGE, MALDI-TOF MS (spot number not given, stands under spot 7)

Measured: binding

flag-tagged UCH-L1 (Ubiquitin C-terminal hydrolase-L1) expressed from pFlag-CMV-2-UCH-L1 (from UniProt P09936 1-220) (enzyme)
binds: all assays above
